Data source: PubChem BioAssay AID743454 (Peter MacCallum Cancer Centre, 2014)

Purpose: 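Search for knock-downs that restore vorinostat killing in resistant colon cancer cells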 (primary screen)
Cells: human HCT116-VR colon cancer cells, selected for vorinostat resistance
Reagents: siRNA pool against human genes, 40 nM siRNA pool
Time to read-out: vorinostat for 24 h, read-out about 72 h after transfection
Treatment: vorinostat at 2.5 µM final
Read-out: 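Two measures, CellTiter-Fluor viability and luminescent caspase 3/7 activity, each as fold change against same-plate mock wells, mean of duplicates, then screen-wide robust z-score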
Direction: viability robust z-score: higher = more viable cells than screen typical; caspase robust z-score: higher = more caspase 3/7 activity than screen typical
Rule for the call: 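Hits are knock-downs in viability class RV1/RV2 or caspase class CA1/CA2, excluding ones that killed cells in the no-drug cell-count arm; hits then retested with single siRNAs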
The deposit covers about 18,000 reagents; below is an unselected part. 450 of all reagents (2.5%) count as active. 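Single biological run; no consistent viability z cut-off exists, so the class columns, not z-scores, define the calls.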 Entries without a mark were called inactive.

Against REXO4, the entry reads viability hit class no change; caspase hit class no change; viability robust z-score -2.42; caspase robust z-score -0.02. Depletion of USP29 came out at: viability hit class no change; caspase hit class no change; viability robust z-score 2.04; caspase robust z-score -0.67. After knock-down of FCMR, the screen gave viability hit class no change; caspase hit class no change; viability robust z-score -1.97; caspase robust z-score 0.32. Depletion of PSG8 resulted in: viability hit class no change; caspase hit class no change; viability robust z-score -0.39; caspase robust z-score 2.7. GZMH gave viability hit class no change; caspase hit class no change; viability robust z-score -0.18; caspase robust z-score 0.52. Depletion of LHX8 came out at: viability hit class no change; caspase hit class no change; viability robust z-score -1.21; caspase robust z-score 0.34.

Silencing of BLTP3B gave: viability hit class no change; caspase hit class no change; viability robust z-score -0.03; caspase robust z-score 1.08. C10orf53 gave viability hit class no change; caspase hit class no change; viability robust z-score 0.04; caspase robust z-score -0.75.

Reformatted: entries from further up.
gene knocked down	viability hit class	caspase hit class	viability robust z-score	caspase robust z-score
REXO4	no change	no change	-2.42	-0.02
USP29	no change	no change	2.04	-0.67

The results go on:
UFSP1 showed viability hit class no change (active); caspase hit class CA1 (caspase activation); viability robust z-score -0.96; caspase robust z-score 6.41. With knock-down of PKD1, the screen gave viability hit class no change; caspase hit class no change; viability robust z-score -0.09; caspase robust z-score 1.84. Depletion of SRSF8 came out at: viability hit class no change; caspase hit class no change; viability robust z-score 0.23; caspase robust z-score -0.39. For ZNHIT6, the values are viability hit class no change; caspase hit class no change; viability robust z-score -1.62; caspase robust z-score -0.35. Depletion of ATP9A resulted in: viability hit class no change; caspase hit class no change; viability robust z-score -0.31; caspase robust z-score -0.18. Against MEMO1 the deposit lists viability hit class no change; caspase hit class no change; viability robust z-score -0.52; caspase robust z-score -0.53.
